Test results taken from article PMC3402419.

Amino acid sequences for entries named in this document (tags omitted).
UniProt Q99471: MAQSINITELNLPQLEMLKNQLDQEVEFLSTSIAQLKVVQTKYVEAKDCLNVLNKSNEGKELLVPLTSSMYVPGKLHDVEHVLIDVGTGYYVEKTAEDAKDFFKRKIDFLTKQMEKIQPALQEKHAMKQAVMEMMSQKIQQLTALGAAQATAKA
UniProt Q9UHV9: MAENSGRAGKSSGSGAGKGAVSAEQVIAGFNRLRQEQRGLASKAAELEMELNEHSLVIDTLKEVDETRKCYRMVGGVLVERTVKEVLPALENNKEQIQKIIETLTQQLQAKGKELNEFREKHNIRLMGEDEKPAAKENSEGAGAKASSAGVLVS
UniProt P61758: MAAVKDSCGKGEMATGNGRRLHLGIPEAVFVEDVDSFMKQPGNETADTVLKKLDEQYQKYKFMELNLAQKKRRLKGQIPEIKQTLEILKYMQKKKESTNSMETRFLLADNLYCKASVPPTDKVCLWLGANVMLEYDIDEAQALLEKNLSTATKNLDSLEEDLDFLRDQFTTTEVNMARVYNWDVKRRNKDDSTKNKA

Molecular target: FLAG-tagged MM-1α (UniProt Q99471)
Test: affinity purification with mass spectrometry; extracts of F-MM-1-expressing H1299 and parental H1299 cells precipitated with agarose-conjugated anti-FLAG (M2); silver-stained specific bands cut out, trypsin, TOF-MS

| binding | Substance |
| --- | --- |
| binds | PFD2 (from UniProt Q9UHV9 1-154) |
| binds | PFD3 (from UniProt P61758 1-197) |

No constants are given. Whether binding was seen depends on the method and setting. Binding seen in cells or lysates may run through a third protein. Here binding means that the protein was enriched with, or labelled near, the bait; the list need not be complete.
